Results deposited as PubChem BioAssay AID686938 (Drosophila RNAi Screening Center, 2013).

Purpose: 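Fly genes required for calcium entry once internal stores are emptied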 (primary screen)
Cell system: Drosophila S2R+ cells
Reagent: long dsRNA against Drosophila genes, about 0.25 µg dsRNA per well, roughly 10,000 cells
Time to read-out: 5 days of knock-down before the calcium assay
Challenge: thapsigargin (SERCA pump blocker) to empty calcium stores; entry signal taken 4 min after adding it
Detection: 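Duplicate raw fluo-4 intensities per well from a plate reader, at rest and four minutes after thapsigargin emptied calcium stores; entry-to-rest ratio filled for only some wells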
Reading the numbers: calcium entry signal: higher = stronger calcium signal after store depletion; entry to resting ratio: higher = more calcium entry relative to resting level; resting calcium signal: higher = higher resting calcium signal
Hit rule: 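Called when the plate z-score of the entry-to-rest ratio, mean of duplicates, falls below −3; wells with low overall dye signal (Fmax z below −2) or more than five off-targets excluded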
Calls: active = strongly reduced calcium entry; inactive = no strong reduction
The deposit covers about 23,000 reagents; shown is a random part of those that have a named target and a result. In the full data, 75 (0.33%) were called active. 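Raw plate signals without normalisation; calls rest on plate z-scores that were not deposited; ratio present for only 364 wells.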 A number with no mark means an inactive call. Not stated in the record: the dose of the treatment.

Gene | DRSC id | calcium entry signal, replicate 1 (fluorescence units) | calcium entry signal, replicate 2 (fluorescence units) | entry to resting ratio | resting calcium signal, replicate 1 (fluorescence units) | resting calcium signal, replicate 2 (fluorescence units)
CG17362 | DRSC10267 | 5.65e7 | 4.59e7 | – | 2.15e7 | 1.80e7
Cpr | DRSC03293 | 5.26e7 | – | – | 2.41e7 | –
ru | DRSC08258 | 3.53e7 | 4.65e7 | – | 1.74e7 | 1.91e7
Or92a | DRSC16771 | 3.50e7 | 4.11e7 | – | 4.83e7 | 1.80e7
CG3907 | DRSC04432 | 2.65e7 | 3.37e7 | – | 1.43e7 | 1.55e7
CG3097 | DRSC18275 | 3.53e7 | 3.57e7 | – | 1.63e7 | 1.41e7
Cchl | DRSC15949 | 3.45e7 | 3.30e7 | – | 1.67e7 | 1.53e7
lncRNA:CR34024 | DRSC13734 | 3.92e7 | 2.41e7 | – | 1.69e7 | 1.36e7
CR10102 | DRSC05963 | 2.17e7 | 3.21e7 | – | 1.14e7 | 1.33e7
alphaTub84B | DRSC12622 | 2.23e7 | 2.86e7 | – | 1.34e7 | 1.97e7
Rab3 | DRSC07523 | 6.08e7 | 4.42e7 | – | 2.48e7 | 2.01e7
gsb | DRSC04692 | 3.51e7 | 3.19e7 | – | 1.79e7 | 1.42e7
CG12540 | DRSC19471 | 2.83e7 | 3.56e7 | – | 1.48e7 | 1.49e7
Dyb | DRSC07208 | 4.08e7 | 4.86e7 | – | 1.80e7 | 2.28e7
Dyb | DRSC22862 | 1.95e7 | 3.46e7 | – | 1.08e7 | 1.54e7
CG11269 | DRSC04094 | 4.21e7 | 5.53e7 | – | 2.06e7 | 2.33e7
Proc | DRSC03009 | 2.23e7 | 1.99e7 | – | 1.32e7 | 1.14e7
Proc | DRSC22998 | 5.09e7 | 4.43e7 | – | 2.53e7 | 1.88e7
CG7551 | DRSC10876 | 2.55e7 | 4.36e7 | – | 1.39e7 | 1.92e7
ATPsynC | DRSC15236 | 2.06e7 | 2.60e7 | – | 1.32e7 | 1.41e7
Yeti | DRSC21138 | 5.90e7 | 3.91e7 | – | 3.12e7 | 2.20e7
Tsp29Fa | DRSC03232 | 4.33e7 | 5.21e7 | – | 1.76e7 | 2.10e7
CG1971 | DRSC15406 | 3.00e7 | 3.91e7 | – | 1.39e7 | 1.96e7
Hipk | DRSC07885 | 4.87e7 | 5.70e7 | – | 3.14e7 | 2.91e7
Hipk | DRSC08507 | 5.06e7 | 4.50e7 | – | 2.18e7 | 2.16e7
Hipk | DRSC23155 | 3.35e7 | 3.64e7 | – | 1.81e7 | 1.96e7
CG31468 | DRSC13637 | 3.27e7 | 2.97e7 | – | 1.49e7 | 1.43e7
RabX5 | DRSC08608 | 3.95e7 | 4.17e7 | – | 2.07e7 | 1.81e7
CG14329 | DRSC14808 | 2.85e7 | 5.34e7 | – | 1.70e7 | 7.04e7
mRpS31 | DRSC10556 | 3.99e7 | 4.74e7 | – | 1.68e7 | 3.05e7
Mal-A2 | DRSC07460 | 4.00e7 | 3.75e7 | – | 1.96e7 | 1.78e7
CG2003 | DRSC15411 | 3.65e7 | 4.78e7 | 2.1 | 1.78e7 | 1.94e7
CG2126 | DRSC15418 | 6.14e7 | 5.06e7 | 2.2 | 2.74e7 | 2.09e7
DIP2 | DRSC08582 | 4.14e7 | 4.24e7 | – | 1.92e7 | 2.11e7
trbd | DRSC16494 | 3.39e7 | 3.80e7 | – | 1.57e7 | 1.92e7
Gr28a | DRSC02290 | 3.38e7 | 4.28e7 | – | 1.81e7 | 1.93e7
mspo | DRSC07652 | 2.77e7 | 4.76e7 | – | 1.47e7 | 1.92e7
CG10205 | DRSC05979 | 2.61e7 | 2.52e7 | – | 1.44e7 | 1.43e7
CAP | DRSC05215 | 2.41e7 | 3.42e7 | – | 1.79e7 | 1.30e7
CAP | DRSC06743 | 4.62e7 | 4.30e7 | – | 1.85e7 | 1.83e7
CAP | DRSC06744 | 3.70e7 | 3.11e7 | – | 1.66e7 | 1.38e7
CAP | DRSC06745 | 3.42e7 | 3.27e7 | – | 1.54e7 | 1.39e7
CAP | DRSC06846 | 3.35e7 | 3.23e7 | – | 1.47e7 | 1.26e7
